# Source: US6340754B1, “Phosphorus containing cyclic nucleotides” (priority 1998, dated 2002)
# Some of these results come from one statement about several compounds together. At least one structure is not confirmed: it was looked up by name or label, or the drawing left a doubt.
# Test system: Disrupted cells (fraction C) of Serratia marcescens, cyclic nucleotide phosphodiesterase activity
# Test: Activity assay, fraction C: disrupted cells supernatant, HPLC detection of substrate and products
# Type: biochemical, Serratia marcescens strain DSM 30121
# Conditions: 10 mM substrate solution, overnight at 30° C.
smiles,measurement,value
"COCCO[C@@H]1[C@@H]2OP(=O)(O)OC[C@H]2O[C@H]1n1cnc2c(N)ncnc21 [2′MOE CAMP, 2′-O(2-Methoxyethyl)-adenosine 3′,5′-cyclic-phosphate]",hydrolysis of substrate,≥ 99%
